Primary screen of a compound library

Source: ChEMBL document CHEMBL3988442, “University of Dundee, Small-Polar-MMV Screening Library” (2021).

Results are given as percent effect. The record does not define 0% and 100%; most values in the screen are far below 50% and negative numbers occur (in some assays of this library far below -100). The compounds are a random part of those screened. Two or more numbers in one place are separate tests of the same structure; such repeats can differ widely.

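Viability assay of Plasmodium falciparum sporozoites; the read-out is not stated. The concentration is filed as 10 mM, unlikely as a test dose, so the dose is not known. The record gives no direction; compounds that gave an IC50 in retests scored well above the rest, so higher reads as lower viability. Strong results were mostly tested again. Of about 34,000 compounds tested this way, about 280 (0.84%) reached 50% or more in at least one test.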

SMILES | Percent Effect
O=C1c2cccnc2OC(CN2CCOCC2)CN1CC1CC1 (stereo unspecified) | 15.6
CC(NCc1cnc(C2CCC2)s1)c1ccc(-n2cncn2)cc1 (stereo unspecified) | 2.176
Cn1ccc2cc(C(=O)Nc3nc[nH]n3)ccc21 | -7.902
Cc1nc(CN(C)C(=O)Nc2cnn(CC3CCCO3)c2)cs1 (stereo unspecified) | 6.235
Cc1nc(C2CCN(C(C)C)CC2)sc1Br | 1.79
O=C(O)C(F)(F)F.[H][C@@]12C[C@H](C(=O)NC3CCC3)[C@@]([H])(CN(CC(C)C)C1)O2 | 14.56
CCc1nn(C)c(Cl)c1CN1CCCC2(CC1)CN(C)C(=O)O2 (stereo unspecified) | 10.38
CNCC(=O)NC1CC(C)(C)Cc2nc(C(C)(C)C)ncc21 (stereo unspecified) | 11.28
O=C(c1ccc2c(c1)OCO2)N1CCC[C@]2(C[C@H](OCC3CC3)CO2)C1 | 2.422
Cc1ccc(NC(=O)CNc2ccn(CC(N)=O)n2)c(Cl)c1 | -2.514
CC(C(=O)NCCOc1cccc(Cl)c1)n1cncn1 (stereo unspecified) | -3.701
O=C(C1CCOCC1)N1CCC2(CCC(C(=O)N3CCCC3)O2)CC1 (stereo unspecified) | 7.528
CCC1CN(CC(=O)N2CCN(C(C)=O)CC2)CCN1CCOC (stereo unspecified) | 3.987
Cc1cnn(CC2CCCN2C(=O)Cc2c(C)noc2C)c1 (stereo unspecified) | -6.535
COCCCC1(CO)CCCN(CCc2ccccc2)C1 (stereo unspecified) | -10.74
Cc1nccn1[C@@H]1CC[C@@H](N(C)S(=O)(=O)c2ccc(F)cc2)[C@H]1O | -2.246
COc1nccc(N2CCN(Cc3ccc(C)cc3)C(=O)C2)c1C#N | 5.671
O=C(c1ccc[nH]1)N1Cc2nccn2CC(Cn2ncccc2=O)C1 (stereo unspecified) | 7.589
CCOCC1CN(C(=O)CC2=CCCCC2)Cc2nnn(C)c21 (stereo unspecified) | 1.278
COc1ccccc1C(NCc1ccc(SC)cc1)c1nccn1C (stereo unspecified) | 7.417
NC(=O)Cn1c(CO)cnc1SCC(=O)NCc1ccccc1Cl | -15.15 & -22
c1ncc(CN2CC(Cc3nccc4cc[nH]c34)C2)cn1 | -1.679
CC(=O)c1cnc(N(C)Cc2cnc3ccccc3n2)nc1C | -14.78 & -20.36
c1cnc(N2CCC(c3cc4cccnc4[nH]3)CC2)nc1 | 10.25
CC(C)N(C)Cc1nnc2n1CCCN(C(=O)c1ccco1)C2 | -7.039
COCC(=O)N1CCN(C)CC(Cc2cc(N(C)C)ncn2)C1 (stereo unspecified) | 0.09653
NS(=O)(=O)CCNC(=O)c1nnn(-c2ccccc2)c1C1CC1 | -4.961
CN(Cc1ccco1)C(=O)CN1CCCC1Cn1cncn1 (stereo unspecified) | 7.262
O=C(NC1CCS(=O)(=O)C1)c1ccccc1SCc1cscn1 (stereo unspecified) | 19.82
O=C(NCCc1c[nH]cn1)c1ccc2c(c1)C(=O)N(C1CC1)C2=O | 0.6579
O=C(O)C(F)(F)F.O=C(O)C(F)(F)F.[H][C@@]12CN(CC)C[C@]1([H])[C@H](OC)CCN2S(=O)(=O)c1cccnc1 | 6.805
[H][C@@]12CN(C(=O)NC(C)C)C[C@]1([H])C(=O)N(Cc1cccc(C)c1)C2 | 2.835
O=C(Cc1ccccc1Cl)N1CCCC(n2cncn2)C1 (stereo unspecified) | -0.161
CCc1cc(CN(C)C(=O)CN2CC(c3ccccc3)CC2=O)on1 (stereo unspecified) | 1.205
COCc1nccc(C2CCCN(Cc3ccc(SC)cc3)C2)n1 (stereo unspecified) | -16.23
CCOc1cccc(C(=O)N2CCC(c3n[nH]c(C4CC4)n3)CC2)c1 | 7.47
CNc1ncc(-c2csc(NC(=O)C[C@H]3COCCN3)n2)cn1.Cl | 3.641
O=C1C(N2CCOCC2)CCCN1Cc1cccc(C(F)(F)F)c1 (stereo unspecified) | -0.8953
O=C(NCCCn1cccn1)C1(c2cccc(Cl)c2)CC1 | -1.287 & -5.255
O=C(c1cccs1)N1CCC2(CC1)CN(c1cncnc1)C(=O)CO2 | -12.11
Cc1cc(CN2CCN(C(=O)NCc3cccs3)CC2)on1 | -8.528
O=C(O)C(F)(F)F.O=C(O)C(F)(F)F.O=C1CC2(CCN(CC3CC3)C2)CN1c1cccnc1 (stereo unspecified) | -190.8
CCCn1[nH]cc/c1=N\C(=O)CN1CCn2c(nnc2C2CC2)C1 | -3.627
O=C(c1ccccn1)N1CCCC(c2cc(C(F)F)n3ncnc3n2)C1 (stereo unspecified) | -1.963
COCCc1noc(CNCC2CCCN2c2cccnn2)n1 (stereo unspecified) | -10.87
CCS(=O)(=O)N1CCC2(CCN(C(=O)c3cccs3)CC2)CC1 | 19.41
Cn1cnnc1C1CCCN(C(=O)c2cnc3ccccc3n2)C1 (stereo unspecified) | -4.624
CC(=O)N1CCC2(C=C(C(=O)NC3CC3)c3ccccc32)CC1 | 10.07
[H][C@@]12CN(C(=O)COC)C[C@]1([H])OCCN2Cc1c(C)noc1C | -16.89
CC(C(=O)N1CCN(c2ncccn2)CC1)n1cncn1 (stereo unspecified) | 17.93
O=C1N(Cc2cccc(F)c2F)CCCC1(O)CNC1CCCC1 (stereo unspecified) | 2.146
CCOCC1CN(C(=O)c2cccnc2)Cc2cnn(C)c21 (stereo unspecified) | 4.89
Cc1cnc(C2(C)CCN(Cc3cscn3)CC2)s1 | 18.67
CC(C)Cc1noc(CN2CCC(NC(=O)c3cccs3)CC2)n1 | 9.378
Cc1nc(CN2CCc3ncnc(-c4ccccc4)c3CC2)cs1.O=C(O)C(F)(F)F | -3.199
Cc1ncsc1CCN(C)Cc1cc2n(n1)CCN(S(C)(=O)=O)C2 | 7.46
O=C(c1cncc(N2CCC3(CCNCC3)CC2)n1)N1CCCC1 | -1.502
Cc1nc(C)n(CC2CN(Cc3cccc4c3OCCO4)CCO2)n1 (stereo unspecified) | 5.134
O=C1CCCN1CCCC(=O)N1CCCC(Cc2cccnc2)C1 (stereo unspecified) | 6.527
Cc1ccc(C(=O)N2Cc3c(CN4CCCCC4)nn(C)c3C2)cc1F.O=C(O)C(F)(F)F | 5.817
O=C(O)C(F)(F)F.O=C(O)C(F)(F)F.[H][C@]12CCCC(N(C)Cc3ccccn3)[C@@]1([H])CN(CC1CC1)C2 (stereo partly specified) | 6.388
COc1cc2c(cc1CCC(=O)O)CCC2 | 6.9
Cc1cc(C)n(CC2CCCCN2Cc2cscn2)n1 (stereo unspecified) | 6.243
Cc1nc(N2CCOCC2)nc2c1CCN(C(=O)N1CCCC1)CC2 | 0.1805
Cn1ccc(C(=O)N2CCOC(c3ccc(C(N)=O)cn3)C2)n1 (stereo unspecified) | -0.7851
CCC(C)NC(=O)CCn1ccc(C)n1 (stereo unspecified) | 6.177
COCCCC1CCCN(C(=O)CCc2cc(O)no2)C1 (stereo unspecified) | 0.8959
CCc1nc2n(n1)CC(NCc1nc(C)ccc1O)CC2 (stereo unspecified) | -7.554
CC(=O)Nc1nc(CN2CCn3c(nnc3C(C)C)C2)cs1 | 0.9323
O=C1CCCN1Cc1nnc2n1CCN(Cc1ccco1)C2 | 15.42
[H][C@@]12CCN(Cc3c(C)noc3C)C[C@@]1([H])O[C@@H](c1ccncn1)C2 | -6.54
COc1ccc2cc(C(=O)N3CCCCC3CC(N)=O)[nH]c2c1 (stereo unspecified) | -2.944
CC(NC1(CNC(=O)C(C)(C)C#N)CCOCC1)c1ccccc1 (stereo unspecified) | 7.843
O=C(CN1CCCC(Cn2cncn2)C1)NCc1ccco1 (stereo unspecified) | -3.015

Some entries from above, unchanged:

* [H][C@@]12CN(C(=O)NC(C)C)C[C@]1([H])C(=O)N(Cc1cccc(C)c1)C2 | 2.835%
* CNc1ncc(-c2csc(NC(=O)C[C@H]3COCCN3)n2)cn1.Cl | 3.641%
* O=C(O)C(F)(F)F.O=C(O)C(F)(F)F.[H][C@]12CCCC(N(C)Cc3ccccn3)[C@@]1([H])CN(CC1CC1)C2 (stereo partly specified) | 6.388%
* O=C(c1cccs1)N1CCC2(CC1)CN(c1cncnc1)C(=O)CO2 | -12.11%
* Cc1cnn(CC2CCCN2C(=O)Cc2c(C)noc2C)c1 (stereo unspecified) | -6.535%
* COCCCC1CCCN(C(=O)CCc2cc(O)no2)C1 (stereo unspecified) | 0.8959%